assay: Cure time under ultraviolet radiation; conditions: in Acrylamide-polymer B; one weight percent (P-5 two weight percent); 3 seconds per pass, about 400 mJ/cm²

Going from `CC(C)(O)C(=O)c1ccccc1` [P-1, 2 hydroxy-2-methylphenylpropan-1-one] to `CCOC(OCC)C(=O)c1ccccc1` [P-2, diethoxyacetophenone], the “CURE TIME SECONDS” value rises from 10 s to 15 s.

In the case of `O=C(c1ccccc1)C1(O)CCCCC1` [P-3, (1-hydroxycyclohexyl)phenylmethanone], the “CURE TIME SECONDS” value is reported as 5 s.

With `O=C(c1ccccc1)c1ccccc1` [P-4, benzophenone] the “CURE TIME SECONDS” value was greater than 70 s.
